In the experiment the test system is SiHa (human cervical carcinoma) cells. Kind of experiment: Cytotoxic activity, WST-1 assay, SiHa. It counts as cell-based. Particulars: 72 h, read-out: IC50 SiHa. The procedure: In vitro anticancer assays were performed in triplicate for the determination of mean values. The human cervical carcinoma SiHa, murine melanoma B16F10, chronic myelogenous leukemia (CML) K562, and Chang cell lines were cultured in minimum essential medium of Eagle at 37 °C in a […] atmosphere with 10% fetal bovine serum, 2 mM L-glutamine and 1% penicillin/streptomycin. Cells were trypsinized and seeded at a density of 5 × 10^4 cells/mL in a 96-well plate and incubated at 37 °C, […] atmosphere for 24 h. Thereafter the cells were treated with azetidin-2-one derivatives (dissolved in DMSO) at various concentrations between 312 nM–10 μM, and re-incubated for further 72 h. Wells containing the equal volume of the vehicle DMSO (1% v/v) were used as background (negative control). The culture medium was then removed and the cells washed with 100 μL phosphate buffered saline (PBS); then 10 μL WST-1 (Roche, USA) was added. Cells were incubated for 2 h in absence of light at 37°C, and absorbance was read subsequently. […] Afterwards, these values were used to assess half maximal inhibitory concentration (IC50) using Graph-Pad Prism software.
On the technique in general: Formazan colour is commonly taken as a measure of viable cells.

This is an account of results in paper PMC5514948, “Stereochemical preference toward oncotarget: Design, synthesis and in vitro anticancer evaluation of diastereomeric β-lactams” (Oncotarget, 2017).

As usually defined, the IC50 is the midpoint of a concentration-inhibition curve. `COc1cc2c(c(OC)c1OC)-c1ccc(OC)c(=O)cc1[C@@H](NC(C)=O)CC2` [Colchicine, reference compound]: the IC50 was found to be 2500 ± 500 nM.
